These are literature values, as cited in patent US20240390871A1, “Production of encapsulated nanoparticles at high volume fractions” (iCeutica Pty Ltd., priority 2009, published 2024).

For the series the following is noted: current commercial formulations.

What is called Tmax is the time from dosing to the highest level. As to `COc1ccc2cc([C@H](C)C(=O)O)ccc2c1` [naproxen], the time to peak (Tmax) is 1 to 4 h.
